Data as given in PubChem BioAssay AID1259300 (Sanger Institute, 2017).

Assay: 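siRNA screen of kinases and common colorectal cancer mutant genes, alone or with drugs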 (primary screen)
System: HCT15 colorectal cancer cells
Reagents: siRNA pool against human genes
Challenge: anchor drug or DMSO vehicle added 24 h after seeding: BYL719 1 µM, cetuximab 5 µg/ml, trametinib 10 nM; drug doses chosen to barely affect viability alone
Measurement: 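Replicate-mean viability relative to non-targeting pool control with robust z-score for knock-down without drug; per-drug synergy scores for BYL719 (1 µM), cetuximab (5 µg/ml), trametinib (10 nM)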
Scale: viability z-score, siRNA alone: higher = more viable cells after knock-down
Call rule: 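a knock-down without drug that drives the robust viability z-score under -3 is active, i.e. essential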
Meaning of the calls: active = essential: knock-down alone lowers viability (z below -3); inactive = no strong viability loss with knock-down alone
The whole screen tested 794 reagents; shown is a part drawn at random. 18 of them (2.3%) were called active. 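Calls rest on knock-down alone, not drug synergy; depositor treated synergy scores above 0.15 as synergistic; drug doses alone had little viability effect.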 Not all columns of the deposit are shown. The record does not give: the amount of reagent, the time to read-out.

Against PRKAA2 the deposit lists viability z-score, siRNA alone 0.625; inactive.
With knock-down of AKT1, the record shows viability z-score, siRNA alone -0.404; inactive.
PANK1 gave viability z-score, siRNA alone 0.405; inactive.
Silencing of SRPK3 came out at: viability z-score, siRNA alone -0.636; inactive.
Knock-down of MAP3K5 resulted in: viability z-score, siRNA alone 0.518; inactive.
Against GRK7, the values are viability z-score, siRNA alone -0.0685; inactive.
Depletion of PIK3C2G resulted in: viability z-score, siRNA alone 0.625; inactive.
After knock-down of HIPK4 the results were viability z-score, siRNA alone 0.625; inactive.
Knock-down of MAGI1 came out at: viability z-score, siRNA alone 0.302; inactive.
Silencing of PNCK came out at: viability z-score, siRNA alone 0.625; inactive.
Depletion of CAMK1 came out at: viability z-score, siRNA alone -0.39; inactive.
DAPK2 gave viability z-score, siRNA alone -1.77; inactive.
CDK5 scored viability z-score, siRNA alone 0.625; inactive.
After knock-down of GATA3, the screen gave viability z-score, siRNA alone 0.172; inactive.
With knock-down of MYO3B, the screen gave viability z-score, siRNA alone 0.625; inactive.
FER scored viability z-score, siRNA alone 0.625; inactive.
After knock-down of PI4KB, the screen gave viability z-score, siRNA alone 0.625; inactive.

In a second layout: results already given
| gene | viability z-score, siRNA alone | call |
| --- | --- | --- |
| MYO3B | 0.625 | inactive |
| FER | 0.625 | inactive |
| PI4KB | 0.625 | inactive |

Additional reagents:
With knock-down of PIK3R2, the record shows viability z-score, siRNA alone -0.0669; inactive.
Against GSK3A, the entry reads viability z-score, siRNA alone 0.625; inactive.
PBK gave viability z-score, siRNA alone -1.19; inactive.
Against BLK, the entry reads viability z-score, siRNA alone 0.625; inactive.
Knock-down of IRAK1 came out at: viability z-score, siRNA alone 0.625; inactive.
TP53BP1 showed viability z-score, siRNA alone -1.08; inactive.
Against SRPK1, the values are viability z-score, siRNA alone -0.297; inactive.
Silencing of PRKACA resulted in: viability z-score, siRNA alone 0.625; inactive.
Silencing of NTRK1 resulted in: viability z-score, siRNA alone 0.625; inactive.
Knock-down of ITPKC gave: viability z-score, siRNA alone 0.466; inactive.
For STRADA, the entry reads viability z-score, siRNA alone -0.229; inactive.
